In publication PMC7862700 one finds binding signal data, which are given here for 45 sequences.

Amino acid sequences for entries named in this document (tags omitted). A change or cut given only in a name is not applied to a line headed by its entry.
UniProt Q01892: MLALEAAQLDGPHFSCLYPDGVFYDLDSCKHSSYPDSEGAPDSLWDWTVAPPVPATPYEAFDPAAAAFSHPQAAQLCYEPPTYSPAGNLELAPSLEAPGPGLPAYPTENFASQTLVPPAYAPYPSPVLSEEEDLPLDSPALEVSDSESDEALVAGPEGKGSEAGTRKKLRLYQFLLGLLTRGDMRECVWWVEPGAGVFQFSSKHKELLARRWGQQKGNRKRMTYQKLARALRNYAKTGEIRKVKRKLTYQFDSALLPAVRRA

The list shows a part of the results, in another mix than the full data. At the low end of the ranking, values are background and their order means little.

What all share (assay): DAPPL (digital affinity profiling via proximity ligation, sequencing)
What all share (settings): 10 mM Tris-HCl pH 7.5, 50 mM NaCl, 1 mM DTT, 4% glycerol, room temperature, 30 min; GST-TFs on glutathione beads, 16-mer random dsDNA library, 0.1% …; high values mean tight binding; double strand, one strand shown; scale: fold enrichment (6-mer frequency, TF over GST control)

The target of assay [1] is T1, FLI1 (UniProt Q01543).
T1 sequence: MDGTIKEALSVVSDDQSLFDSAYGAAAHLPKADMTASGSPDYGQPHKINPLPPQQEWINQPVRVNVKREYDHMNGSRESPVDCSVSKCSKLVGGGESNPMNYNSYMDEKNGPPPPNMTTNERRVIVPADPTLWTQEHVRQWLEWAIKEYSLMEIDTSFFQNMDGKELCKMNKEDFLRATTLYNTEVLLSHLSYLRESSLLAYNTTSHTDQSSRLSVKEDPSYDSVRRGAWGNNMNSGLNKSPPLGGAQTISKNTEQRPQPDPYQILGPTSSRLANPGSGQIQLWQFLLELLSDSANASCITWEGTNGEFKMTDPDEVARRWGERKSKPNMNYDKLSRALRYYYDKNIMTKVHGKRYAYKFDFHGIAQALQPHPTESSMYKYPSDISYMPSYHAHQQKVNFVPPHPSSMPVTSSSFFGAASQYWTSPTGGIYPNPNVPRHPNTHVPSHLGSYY

Assay [2] concerns the target T2, EHF (UniProt Q9NZC4).
T2 sequence: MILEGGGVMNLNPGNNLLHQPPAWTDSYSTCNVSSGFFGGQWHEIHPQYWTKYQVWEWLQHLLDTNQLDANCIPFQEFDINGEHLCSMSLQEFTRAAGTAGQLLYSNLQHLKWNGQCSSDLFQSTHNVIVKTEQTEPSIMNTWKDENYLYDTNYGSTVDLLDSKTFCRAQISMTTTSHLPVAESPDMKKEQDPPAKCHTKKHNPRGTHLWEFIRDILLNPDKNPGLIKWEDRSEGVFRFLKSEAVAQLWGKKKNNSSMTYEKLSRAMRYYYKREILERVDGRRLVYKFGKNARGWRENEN

Assay [3] has as its target T3, ETV3L (UniProt Q6ZN32).
T3 sequence: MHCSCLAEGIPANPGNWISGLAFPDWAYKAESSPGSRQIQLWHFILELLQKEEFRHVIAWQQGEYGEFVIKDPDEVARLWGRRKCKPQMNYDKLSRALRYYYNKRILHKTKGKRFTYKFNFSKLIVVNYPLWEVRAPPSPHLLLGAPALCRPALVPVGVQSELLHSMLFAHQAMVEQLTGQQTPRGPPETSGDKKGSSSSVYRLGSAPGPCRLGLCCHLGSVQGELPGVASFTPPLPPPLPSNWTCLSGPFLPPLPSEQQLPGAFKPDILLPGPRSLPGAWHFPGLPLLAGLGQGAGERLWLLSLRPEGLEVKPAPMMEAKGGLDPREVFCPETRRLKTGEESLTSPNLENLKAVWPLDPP

The target of assay [4] is SPIB (UniProt Q01892).

In the case of TGACGC, the binding signal in assay [1] came out at 1.1; in assay [2], 1.21; in assay [3], 1.24.
In the case of TCTAAC, the binding signal in assay [1] was 1.18; in assay [2], 1.16; in assay [4], 1.19; in assay [3], 1.19.
As to TAGTGT, the binding signal turned out to be 1.17 in assay [1], 1.11 in assay [2] and 1.04 in assay [3].
Turning to AAGCTG, the figures for the binding signal in assay [1] and in assay [3] were 1.21 and 1.05, respectively.
In the case of GCACGA, the figures for the binding signal in assay [1] and in assay [3] were 1.14 and 1, respectively.
For TCACGT, in that order: 1.28 and 1.22.
As to TTGGCT, the binding signal stood at 1.15 in assay [1], 0.996 in assay [4] and 1.13 in assay [3].
As to TTACGG, the binding signal stood at 1.3 in assay [1], 1.31 in assay [2], 1.38 in assay [4] and 1.22 in assay [3].
In the same order, the values of TTTGCC are 1.42, 1.22, 1.31 and 1.2.
As to ATTCTT, the binding signal was 1.48 in assay [1], 1.56 in assay [4] and 1.46 in assay [3].
With GACTAC, the binding signal in assay [1] and in assay [3] was 1.17 each time.
In the case of TTGGCA, the binding signal in assay [1] is 1.15; in assay [2] it was 1.08; in assay [4], 1.15; in assay [3] it was 1.14.
On to CCTTCA, for which the results for the binding signal in assay [1] and in assay [3] were 1.49 and 1.21, respectively.
In the same order, the values of CAGATT are 1.07 and 0.965.
TTGTTT: the binding signal in assay [1] amounted to 1.46; in assay [4], 1.52; in assay [3] it was 1.46.
Turning to CATAAT, the results for the binding signal in assay [1] and in assay [3] were 0.973 and 1.01, respectively.
For GATTTG, in that order: 1.24 and 1.18.
In the case of TAAGTT, the binding signal in assay [1] was found to be 1.23; in assay [2], 1.38; in assay [4], 1.35; in assay [3], 1.4.
AGCGAC: the results for the binding signal in assay [1] and in assay [3] were 1.09 and 1.13, respectively.
As for GCTACA, the binding signal in assay [1] came to 1.16; in assay [4], 1.24; in assay [3], 1.29.
Consider CTTCTC, for which the results for the binding signal in assay [1], in assay [2] and in assay [3] were 1.38, 1.37 and 1.39, respectively.
TTCATT: the figures for the binding signal in assay [1] and in assay [3] were 1.25 and 1.3, respectively.
In the case of TCCTAA, the binding signal amounted to 1.63 in assay [1], 1.49 in assay [4] and 1.36 in assay [3].
Turning to GTTCTG, the binding signal in assay [1] turned out to be 1.14; in assay [3], 1.23.
Consider GCAACT, for which the results for the binding signal in assay [1], in assay [2] and in assay [3] were 1.22, 1.2 and 1.17, respectively.
In the same order, the values of GCCCAT are 1.06, 0.95 and 0.951.
CAGATG: the binding signal in assay [1] was 1.05; in assay [2], 0.974; in assay [4], 0.972; in assay [3] it was 0.982.
Consider AGCTGT, for which the binding signal was determined as 1.04 in assay [1], 0.931 in assay [2] and 0.903 in assay [3].
In the same order, the values of GAACTG are 0.927, 1.01 and 0.95.
For GCGTCT, in that order: 0.942, 1.08 and 1.1.
As for GCCCCG, the binding signal turned out to be 0.959 in assay [1], 1.16 in assay [4] and 1.03 in assay [3].
With ACCCTC, the binding signal is 1.2 in assay [1] and 1.08 in assay [3].
In the case of TTGGGG, the results for the binding signal in assay [1] and in assay [3] were 1.4 and 1.3, respectively.
In the same order, the values of GTTTCT are 1.36 and 1.33.
As to AACCTA, the binding signal worked out at 1.03 in assay [1] and 1.05 in assay [3].
As for ACGCTC, the binding signal was determined as 0.977 in assay [1], 0.984 in assay [2], 0.957 in assay [4] and 0.918 in assay [3].
In the case of TTTTTT, the binding signal in assay [1] amounted to 1.12; in assay [3] it was 1.18.
On to CTTGTA, for which the binding signal in assay [1] was found to be 1.5; in assay [2], 1.42; in assay [4] it was 1.44.
In the same order, the values of GCTGGC are 1.01, 0.978 and 0.975.
As to ATTCCT, the binding signal amounted to 1.46 in assay [1], 1.34 in assay [2] and 1.43 in assay [4].
As for TTCCGC, the results for the binding signal in assay [1] and in assay [4] were 3.03 and 3.15, respectively.
In the case of GCCTTA, the binding signal stood at 1.15 in assay [1], 1.11 in assay [2] and 1.27 in assay [4].
As for TCGCCC, the values for the binding signal in assay [1] and in assay [4] were 1.34 and 1.25, respectively.
For CACGAT, in that order: 1.4 and 1.32.
Take ATCCTA: the binding signal in assay [1] stood at 1.54; in assay [2] it was 1.3.
